No constants are given. Whether binding was seen depends on the method and setting. Binding seen in cells or lysates may run through a third protein. For part of these data: Tags and fused reporters may be left off the sequences shown.
Key:
Assay in all cases: co-IP; LUMIER-type assay, large mutant SYNCRIP experiment (Fig 4): protein A-tagged SYNCRIP WT, R to K mutants and controls as bait, SMN1-FIREFLY or PRMT1-FIREFLY as prey, co-transfected in HEK293 cells; IgG-coated plates; Log(2) signal with background of PA untransfected wells subtracted
[1] = biological target: BAT3, noninteracting control, protein A fusion (UniProt P46379)
[2] = biological target: T1, U2AF1, noninteracting control, protein A fusion (UniProt Q01081)
T1 sequence: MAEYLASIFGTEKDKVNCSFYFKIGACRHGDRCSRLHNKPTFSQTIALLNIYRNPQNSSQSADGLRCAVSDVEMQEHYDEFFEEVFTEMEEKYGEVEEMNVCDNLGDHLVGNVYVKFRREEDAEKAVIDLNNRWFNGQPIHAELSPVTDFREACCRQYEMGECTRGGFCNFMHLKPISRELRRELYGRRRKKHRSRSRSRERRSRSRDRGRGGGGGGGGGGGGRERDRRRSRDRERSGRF

Chains of the proteins cited; added tags and fusions are not shown.
UniProt P46379: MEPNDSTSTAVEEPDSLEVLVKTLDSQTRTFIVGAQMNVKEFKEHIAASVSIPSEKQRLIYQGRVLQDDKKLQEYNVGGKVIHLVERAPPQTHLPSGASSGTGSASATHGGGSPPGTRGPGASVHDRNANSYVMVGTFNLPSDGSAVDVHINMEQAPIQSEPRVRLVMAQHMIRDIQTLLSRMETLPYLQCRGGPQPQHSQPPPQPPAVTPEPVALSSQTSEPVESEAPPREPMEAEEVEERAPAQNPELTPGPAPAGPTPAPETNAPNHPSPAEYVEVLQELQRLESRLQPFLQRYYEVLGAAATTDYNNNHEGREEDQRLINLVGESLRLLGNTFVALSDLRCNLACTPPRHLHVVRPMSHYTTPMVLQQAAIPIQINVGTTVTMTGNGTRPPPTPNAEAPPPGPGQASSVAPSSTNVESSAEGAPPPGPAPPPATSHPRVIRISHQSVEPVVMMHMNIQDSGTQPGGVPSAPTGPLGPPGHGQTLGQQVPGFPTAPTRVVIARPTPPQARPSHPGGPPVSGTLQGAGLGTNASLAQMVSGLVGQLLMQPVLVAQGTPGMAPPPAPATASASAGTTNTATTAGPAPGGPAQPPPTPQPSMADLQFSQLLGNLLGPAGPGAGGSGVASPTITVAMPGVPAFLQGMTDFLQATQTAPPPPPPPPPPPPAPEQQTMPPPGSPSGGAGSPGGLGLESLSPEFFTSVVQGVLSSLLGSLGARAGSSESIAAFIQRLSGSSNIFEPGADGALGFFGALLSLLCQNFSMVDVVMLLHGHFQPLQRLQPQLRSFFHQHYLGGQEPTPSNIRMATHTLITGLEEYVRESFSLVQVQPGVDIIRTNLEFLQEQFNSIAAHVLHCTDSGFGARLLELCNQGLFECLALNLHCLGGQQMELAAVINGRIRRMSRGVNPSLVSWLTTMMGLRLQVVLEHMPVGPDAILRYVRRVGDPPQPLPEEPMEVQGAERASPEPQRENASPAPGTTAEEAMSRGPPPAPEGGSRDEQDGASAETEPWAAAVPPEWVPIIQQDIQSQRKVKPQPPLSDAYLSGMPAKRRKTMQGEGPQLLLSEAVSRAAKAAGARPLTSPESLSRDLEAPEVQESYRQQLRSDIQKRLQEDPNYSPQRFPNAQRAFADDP
UniProt Q16637: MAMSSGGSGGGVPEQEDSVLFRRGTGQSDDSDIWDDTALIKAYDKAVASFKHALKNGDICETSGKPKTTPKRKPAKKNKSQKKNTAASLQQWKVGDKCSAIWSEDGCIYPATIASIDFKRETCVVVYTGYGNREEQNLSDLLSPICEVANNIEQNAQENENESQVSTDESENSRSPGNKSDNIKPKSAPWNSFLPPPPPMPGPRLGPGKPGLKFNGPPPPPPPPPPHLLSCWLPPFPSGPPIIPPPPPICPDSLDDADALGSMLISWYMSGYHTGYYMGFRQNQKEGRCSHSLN
UniProt Q99873: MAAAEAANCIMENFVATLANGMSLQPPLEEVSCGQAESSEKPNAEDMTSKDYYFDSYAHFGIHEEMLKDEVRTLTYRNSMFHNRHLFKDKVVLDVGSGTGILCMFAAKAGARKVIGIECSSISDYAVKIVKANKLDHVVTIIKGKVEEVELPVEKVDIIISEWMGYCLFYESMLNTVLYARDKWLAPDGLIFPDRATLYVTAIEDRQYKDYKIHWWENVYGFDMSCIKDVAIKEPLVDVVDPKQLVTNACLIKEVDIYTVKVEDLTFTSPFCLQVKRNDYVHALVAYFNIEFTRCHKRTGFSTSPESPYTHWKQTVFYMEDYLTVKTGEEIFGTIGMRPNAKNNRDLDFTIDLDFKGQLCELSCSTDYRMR

[3] = biological target: T2, SPATA24, noninteracting control, protein A fusion (UniProt Q86W54)
T2 sequence: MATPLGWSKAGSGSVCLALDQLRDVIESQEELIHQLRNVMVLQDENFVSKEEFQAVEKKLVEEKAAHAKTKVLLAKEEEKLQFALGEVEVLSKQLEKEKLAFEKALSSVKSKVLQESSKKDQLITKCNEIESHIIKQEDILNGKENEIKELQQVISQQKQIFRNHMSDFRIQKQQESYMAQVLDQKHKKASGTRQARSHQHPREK

binding [1] | binding [2] | binding [3] | Substance
no binding | no binding | no binding | SMN1, wild type, LUMIER fusion (from UniProt Q16637 1-294)
no binding | no binding | no binding | PRMT1, LUMIER fusion (from UniProt Q99873 1-371) (enzyme)
